PubChem BioAssay AID1671195, Yale University, 2021

- Purpose: 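Regulators of LDL receptor activity judged by labelled LDL uptake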 (primary screen)
- Cell system: human Huh7 hepatoma cells
- Knock-down reagent: siRNA pool against human genes, 18 nM
- Duration: about 2 to 2.5 days of knockdown, then 8 h LDL uptake
- Treatment: DiI-labelled LDL at 30 µg/ml for 8 h, in lipoprotein-deficient serum medium
- Measurement: 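Per-cell DiI-LDL intensity by automated imaging; well means scaled to the plate median and given as a robust z-score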
- Direction: robust z-score: higher = more LDL uptake after knockdown
- Hit rule: 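a gene counts as active if at least two replicate z-scores exceed ±2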
Shown is an unselected part of about 22,000 reagents. Of all reagents, about 1,510 (6.9%) got an active call. 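Active includes knockdowns raising or lowering LDL uptake; positive z-scores mean more uptake, negative mean less.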 Reagent sequences are not shown.

gene symbol | PubChem SID | robust z-score, replicate 1 | robust z-score, replicate 2 | robust z-score, replicate 3 | call
IPO9 (importin 9) | SID442899369 | -1.24 | 0.153 | -0.747 | inactive
TRPM7 | SID442893415 | 0.26 | -0.605 | 0.505 | inactive
EDC4 (enhancer of mRNA decapping 4) | SID442884655 | 1.63 | 1.57 | 2.95 | inactive
SESN2 (sestrin 2) | SID442889599 | 0.624 | 0.547 | 0.434 | inactive
LRIT1 (leucine rich repeat, Ig-like and transmembrane domains 1) | SID442903430 | -2.18 | -1.04 | -0.664 | inactive
SMR3A (submaxillary gland androgen regulated protein 3A) | SID442904099 | -1.19 | -2.41 | -0.878 | inactive
LOC400452 (retired record) | SID442894678 | -0.934 | 0.598 | 0.0664 | inactive
FREM3 (FRAS1 related extracellular matrix 3) | SID442899016 | -0.458 | -0.508 | -0.735 | inactive
CD200R1 (CD200 receptor 1) | SID442884800 | 1.87 | 2.05 | 1.73 | inactive
HMGB3P30 (high mobility group box 3 pseudogene 30) | SID442896116 | -0.223 | -0.215 | -0.283 | inactive
LOC440313 (protein enabled homolog) | SID442884129 | 2.03 | 2.05 | 1.68 | active
PSMD13 (proteasome 26S subunit, non-ATPase 13) | SID442889589 | 1.13 | 0.801 | -0.323 | inactive
PMAIP1 (phorbol-12-myristate-13-acetate-induced protein 1) | SID442896665 | -0.777 | -0.427 | 0.309 | inactive
UNC45B (unc-45 myosin chaperone B) | SID442896188 | -0.499 | 0.0654 | -0.307 | inactive
MOGAT3 (monoacylglycerol O-acyltransferase 3) | SID442900569 | -2.2 | -0.316 | 0.185 | inactive
TFAP2D (transcription factor AP-2 delta) | SID442900232 | -0.844 | -0.599 | -0.754 | inactive
AP5B1 (adaptor related protein complex 5 subunit beta 1) | SID442900386 | -0.784 | -0.83 | -0.646 | inactive
H3C6 (H3 clustered histone 6) | SID442885722 | 2.2 | 0.301 | 1.67 | inactive
ARHGEF4 (Rho guanine nucleotide exchange factor 4) | SID442888947 | 0.584 | 0.572 | 0.752 | inactive
CNDP2 (carnosine dipeptidase 2) | SID442895753 | -0.0419 | -0.375 | -0.191 | inactive
LILRB1 (leukocyte immunoglobulin like receptor B1) | SID442903599 | -1.3 | -1.11 | -1.6 | inactive
UBE2U (ubiquitin conjugating enzyme E2 U) | SID442900427 | 0.161 | -1.83 | -0.603 | inactive
LOC439985 (retired record) | SID442883182 | 4.69 | 4.1 | 3.61 | active
EIF2S3 (eukaryotic translation initiation factor 2 subunit gamma) | SID442889615 | 0.64 | 0.323 | 0.637 | inactive
NXNL2 (nucleoredoxin like 2) | SID442900458 | -0.446 | -0.718 | -1.12 | inactive
LOC730011 | SID442902588 | -1.35 | -1.05 | -0.926 | inactive
STMN3 (stathmin 3) | SID442898607 | -0.662 | -1.41 | 0.515 | inactive
IFITM3P7 (IFITM3 pseudogene 7) | SID442886917 | 1.05 | 1.17 | 0.877 | inactive

2 entries from above, limited to “robust z-score, replicate 3”:
PSMD13 (proteasome 26S subunit, non-ATPase 13) [SID442889589]: -0.323
PMAIP1 (phorbol-12-myristate-13-acetate-induced protein 1) [SID442896665]: 0.309
